Assay results published in patent US8187320B2, “Medical implants containing FK506 (tacrolimus)” (Abbott Laboratories Vascular Enterprises Limited, priority 2001, dated 2012).
Where “and” joins values, the source holds several entries; their conditions need not be identical. Equal entries are not always repeated. For at least one compound, name, drawing or mass did not settle the structure.

Legend:
[1] = system: neointima formation and foci of inflammation; assay: Animal study: FK506-loaded ceramic-coated stents implanted into the carotid artery of rabbits; type: in vivo, New Zealand rabbits; settings: ceramic-coated stents loaded with 60 μg of FK506; rabbit carotid artery; after 28 days
Procedure: Stainless steel coronary stents (JOSTENT Flex, 16 mm) were coated with an aluminum oxide ceramic layer. This coating served as carrier of FK506 (as described in Example 5). In this case, the stents were loaded with a total of 60 μg of FK506. In an animal study in rabbits (n=7), these FK506 coated stents and normal stents without coating were implanted into the carotid artery of New Zealand rabbits. The release of FK506 and the effect of FK506 on the growth of the intima and the formation of macrophages and lymphocytes was investigated.
The release of FK506 were determined by HPLC determination of the amount of FK506 in the blood of the rabbits after 1 hr, 8 hr, 24 hr and 48 hr. FIG. 6 is a graph showing the release of FK506 over time. The rabbits were sacrificed after 28 days, and the implanted stents were examined. The area of newly grown intima (neointima) within the stent was quantified under the optical microscope, and is reported in FIG. 7. There is a reduction of 53% in the formation of neointima for stents loaded with 60 μg of FK506 compared with bare stents. […] The use of stents with a ceramic coating onto which FK506 is applied thus leads to a distinct reduction in neointima and in foci of inflammation after the implantation.

[2] = Loading of selected active agents onto stent grafts / polyurethane-coated stents; type: physicochemical
From the text: Loading of Selected Active Agents onto Stent Grafts All values are stated in μg.

[3] = system: smooth muscle cells (SMC); settings: cited from earlier work
[4] = system: IL-2 release from T cells; settings: Kino et al.; read-out: half-maximal inhibition of IL-2 release; cited from earlier work
[5] = Active agent release from stent grafts and polymer-coated stents in PBS buffer at 37° C.; type: physicochemical; settings: FK 506, PBS 37° C.
Procedure: To analyze the active agent release, a stent was incubated at 37° C. in 10 ml of PBS buffer (stabilized with Na azide) at 37° C. After defined periods of time had elapsed, 2×1 ml of the solution were removed and analyzed. These 2 ml were replaced by fresh PBS buffer (stabilized with Na azide).
The tables reflect the total released content of active agent in the solution., ie., the amounts of active agent in the buffer volume removed for the analysis are accumulated with amounts detected in subsequent examples.

restenosis = settings: initial clinical applications; Sousa et al.; cited from earlier work
neointima formation = settings: animal experiments; cited from earlier work
[6] = type A: stent grafts with PTFE polymer layer immersed in solution of dissolved solids
[7] = type B: stent grafts with PTFE polymer layer immersed in i.v. solution
[8] = type C: polyurethane-coated stents immersed in i.v. solution
[9] = type A PTFE stent graft, after 192 hr
[10] = type C polyurethane-coated stent, after 1 hr
[11] = type C polyurethane-coated stent
[12] = type C polyurethane-coated stent, after 367 hr

## C=CC[C@@H]1/C=C(\C)C[C@H](C)C[C@H](OC)[C@H]2O[C@@](O)(C(=O)C(=O)N3CCCC[C@H]3C(=O)O[C@H](/C(C)=C/[C@@H]3CC[C@@H](O)[C@H](OC)C3)[C@H](C)[C@@H](O)CC1=O)[C@H](C)C[C@@H]2OC (relative stereo) [FK 506, [3S-[3R* [E(1S*, 3S*, 4S*)], 4S*, 5R*,-8S*, 9E, 12R*, 14R*, 15S*, 16R*, 18S*, 19S*, 26aR*]]-5,6,8,11,12, 13, 14, 15, 16, 17, 18, 19, 24, 25, 25, 26, 26a-hexadecahydro-5,19-dihydroxy-3-[2-(4-hydroxy-3-methoxycyclohexyl)-1-methylethenyl]-14,16-dimethoxy-4,10,12,18-tetramethyl-8-(2-propenyl)-15,19-epoxy-3H-pyrido[2,1-c] [1,4]oxaazacyclotricosine-1,7-20,21(4H,23H)-tetrone]
[1]
  foci of inflammation: detectable decrease in the foci of inflammation
[2]; [6]
  amount of active agent loaded, Average: 1559 µg
  amount of active agent loaded, single stent: 1382 µg and 1671 µg and 1625 µg
[2]; [7]
  amount of active agent loaded, Average: 18 µg
  amount of active agent loaded, single stent: 18 µg and 16 µg and 21 µg
[2]; [8]
  amount of active agent loaded, Average: 180 µg
  amount of active agent loaded, single stent: 194 µg and 165 µg
[3]; Marx et al., concentrations up to 123 nm
  effect on SMC proliferation: no effect at all
[3]; Mohacsi et al., limits printed in nM and μM, read-out: half-maximal inhibition of SMC proliferation
  IC50: 100 to 1000 nM
[4]
  IC50: ~0.1 nM
[5]; type A PTFE stent graft
  total released content after 3 hr, Average: 57 µg and 45 µg and 62 µg
  total released content after 3 hr, single determinations: 56 and μg and 57 μg and 47 and 43 μg and 62 and 62 μg
  total released content after 8 hr, Average: 80 µg and 95 µg
  total released content after 8 hr, single determinations: 82 and μg and 78 μg and 101 and 93 μg and 92 and 99 μg
  total released content after 24 hr, Average: 109 µg and 154 µg and 147 µg
  total released content after 24 hr, single determinations: 108 and μg and 109 μg and 154 and 155 μg and 148 and 145 μg
  total released content after 96 hr, Average: 161 µg and 187 µg and 148 µg
  total released content after 96 hr, single determinations: 159 and μg and 164 μg and 184 and 190 μg and 145 and 151 μg
[5]; [9]
  total released content after 192 hr, Average: 196 µg
  total released content after 192 hr, single determinations: 195 and μg and 198 μg
[5]; [10]
  total released content after 1 hr, Average: 24 µg and 20 µg
  total released content after 1 hr, single determinations: 20 and μg and 27 μg and 19 and 20 μg
[5]; [11]
  total released content after 3 hr, Average: 22 µg and 26 µg
  total released content after 3 hr, single determinations: 21 and μg and 24 μg and 25 and 26 μg
  total released content after 8 hr, Average: 28 µg and 33 µg
  total released content after 8 hr, single determinations: 26 and μg and 30 μg and 33 and 33 μg
  total released content after 24 hr, Average: 32 µg and 40 µg
  total released content after 24 hr, single determinations: 34 and μg and 31 μg and 41 and 39 μg
  total released content after 96 hr, Average: 36 µg and 41 µg
  total released content after 96 hr, single determinations: 37 and μg and 35 μg and 43 and 38 μg
[5]; type C polyurethane-coated stent, after 264 hr
  total released content after 264 hr, single determination: 85 µg
[5]; [12]
  total released content after 367 hr, Average: 91 µg
  total released content after 367 hr, single determinations: 88 and μg and 94 μg

## CO[C@H]1C[C@@H]2CC[C@@H](C)[C@@](O)(O2)C(=O)C(=O)N2CCCC[C@H]2C(=O)O[C@H]([C@H](C)C[C@@H]2CC[C@@H](O)[C@H](OC)C2)CC(=O)[C@H](C)/C=C(\C)[C@@H](O)[C@@H](OC)C(=O)[C@H](C)C[C@H](C)/C=C/C=C/C=C/1C [rapamycin]
restenosis
  restenosis: complete abolition of restenosis
[3]
  inhibition of the proliferation of SMC cultures: active in inhibiting the proliferation of SMC cultures in the nanomolar concentration range
Neointima formation
  neointima formation: inhibit neointima formation
